Where two headings read alike, the source gives them in different places. Some of these results come from one statement about several compounds together. For at least one compound, name, drawing or mass did not settle the structure.
How the values were obtained:
NL4-3 strain of HIV-1 = test: Multiple cycle infection assay of CAp24 antigen production; assay type: cell-based; details: multiple cycle infection with NL4-3 virus, SupT1, MT4 or PBMC, MOI 0.01, day 4 and day −6 post-infection, read-out: EC50 for antiviral activity (50% inhibition of CA p24 production)
[1] = system: Env-deleted NL4-3 vector virus pseudotyped with the VSV g envelope; assay type: cell-based, HIV-1; details: read-out: EC50 for antiviral activity (50% inhibition of luciferase activity)

COc1ccc(C)cc1CN(C)C(=O)CCCSc1ccc(F)cc1 [Example 97, 4-[(4-fluorophenyl)thio]-N-(2-methoxy-5-methylbenzyl)-N-methyl butanamide]
EC50 (NL4-3 strain of HIV-1; threshold below 500 nM): < 0.5 µM
EC50 (NL4-3 strain of HIV-1; threshold below 5 μM): < 5 µM

COc1ccc(-c2ccn(CCCC(=O)N(C)Cc3cc(F)ccc3OC)n2)cc1 [Example 182, N-(5-Fluoro-2-methoxybenzyl)-4-[3-(4-methoxyphenyl)pyrazol-1-yl]-N-methylbutamide]
EC50 [1]: < 5 µM
EC50 (NL4-3 strain of HIV-1; threshold below 5 μM): < 5 µM

CN(C(=O)CCCn1cc(-c2ccc(F)cc2)cn1)c1nccc2ccccc12 [Example 179, 4-[4-(4-Fluorophenyl)pyrazol-1-yl]-N-isoquinolin-1-yl-N-methylbutamide]
EC50 (NL4-3 strain of HIV-1; threshold below 500 nM): < 0.5 µM
EC50 (NL4-3 strain of HIV-1; threshold below 5 μM): < 5 µM

COc1ccc(F)cc1CN(C)C(=O)CCCn1ccc2c(C#N)cccc21 [Example 110, 4-(4-cyano-1H-indol-1-yl)-N-(5-fluoro-2-methoxybenzyl)-N-methyl butanamide]
EC50 [1]: < 5 µM
EC50 (NL4-3 strain of HIV-1; threshold below 5 μM): < 5 µM

COc1ccc(F)cc1CN(C)C(=O)CCCn1ccc(-c2ccc(F)cc2)n1 [Example 181, N-(5-Fluoro-2-methoxybenzyl)-4-[3-(4-fluorophenyl)pyrazol-1-yl]-N-methylbutamide]
EC50 [1]: < 5 µM
EC50 (NL4-3 strain of HIV-1; threshold below 5 μM): < 5 µM

COc1ccc(F)cc1CN(C)C(=O)CCCn1ccc2cc(C#N)ccc21 [Example 105, 4-(5-cyano-1H-indol-1-yl)-N-(5-fluoro-2-methoxybenzyl)-N-methyl butanamide]
EC50 (NL4-3 strain of HIV-1; threshold below 500 nM): < 0.5 µM
EC50 (NL4-3 strain of HIV-1; threshold below 5 μM): < 5 µM

Source: patent US20120022054A1, “NOVEL SUBSTITUTED ARYL DERIVATIVES, THEIR PROCESS OF PREPARATION AND THEIR THERAPEUTICAL USES AS ANTI-HIV AGENTS” (priority 2008, published 2012)
